Source: the supplement of paper PMC10849652
Some of the results follow.

Sequences of proteins named here, by UniProt entry; tags and fusion partners are left off. A change or cut given only in a name is not applied to a line headed by its entry.
UniProt O95551: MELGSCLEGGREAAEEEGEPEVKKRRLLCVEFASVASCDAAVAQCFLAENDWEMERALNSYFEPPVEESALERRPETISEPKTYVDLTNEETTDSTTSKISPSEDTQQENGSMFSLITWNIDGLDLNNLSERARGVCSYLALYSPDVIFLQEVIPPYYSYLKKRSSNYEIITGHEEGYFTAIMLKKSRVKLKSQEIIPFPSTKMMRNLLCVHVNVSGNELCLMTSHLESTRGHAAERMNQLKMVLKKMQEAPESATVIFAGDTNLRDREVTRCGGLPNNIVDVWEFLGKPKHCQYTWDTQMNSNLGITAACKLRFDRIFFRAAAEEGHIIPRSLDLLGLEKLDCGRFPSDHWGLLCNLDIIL
UniProt Q9BW92: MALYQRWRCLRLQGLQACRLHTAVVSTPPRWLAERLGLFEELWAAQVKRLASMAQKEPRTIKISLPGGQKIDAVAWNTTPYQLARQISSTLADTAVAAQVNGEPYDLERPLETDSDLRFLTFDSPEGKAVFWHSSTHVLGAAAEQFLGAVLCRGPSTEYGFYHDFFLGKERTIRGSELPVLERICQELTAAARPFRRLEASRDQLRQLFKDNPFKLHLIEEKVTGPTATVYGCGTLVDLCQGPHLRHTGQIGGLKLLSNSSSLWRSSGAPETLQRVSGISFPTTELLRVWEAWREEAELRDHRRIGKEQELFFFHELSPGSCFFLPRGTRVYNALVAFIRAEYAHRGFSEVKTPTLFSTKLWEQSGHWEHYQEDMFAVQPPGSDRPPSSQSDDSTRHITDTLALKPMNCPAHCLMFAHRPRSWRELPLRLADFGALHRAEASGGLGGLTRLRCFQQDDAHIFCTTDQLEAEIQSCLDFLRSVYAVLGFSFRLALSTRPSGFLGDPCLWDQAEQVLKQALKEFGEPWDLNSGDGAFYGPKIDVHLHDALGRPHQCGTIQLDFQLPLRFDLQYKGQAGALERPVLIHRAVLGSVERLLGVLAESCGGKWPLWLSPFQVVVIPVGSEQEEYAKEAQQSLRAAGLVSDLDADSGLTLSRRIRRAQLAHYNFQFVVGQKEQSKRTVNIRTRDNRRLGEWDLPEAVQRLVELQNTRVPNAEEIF
UniProt Q9NU19: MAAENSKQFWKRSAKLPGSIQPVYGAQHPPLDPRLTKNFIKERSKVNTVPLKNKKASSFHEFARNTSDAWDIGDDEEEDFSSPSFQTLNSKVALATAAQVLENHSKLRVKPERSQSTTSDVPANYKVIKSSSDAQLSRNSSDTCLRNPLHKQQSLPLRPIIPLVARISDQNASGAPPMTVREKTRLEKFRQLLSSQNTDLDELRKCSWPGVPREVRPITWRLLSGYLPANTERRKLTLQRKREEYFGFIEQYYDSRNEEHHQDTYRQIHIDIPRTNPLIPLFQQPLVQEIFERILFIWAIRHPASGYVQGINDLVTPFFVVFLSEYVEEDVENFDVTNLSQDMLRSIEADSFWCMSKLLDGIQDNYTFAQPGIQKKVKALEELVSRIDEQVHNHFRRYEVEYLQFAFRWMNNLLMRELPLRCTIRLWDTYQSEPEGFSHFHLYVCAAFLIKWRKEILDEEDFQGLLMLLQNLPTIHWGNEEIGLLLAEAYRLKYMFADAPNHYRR
UniProt Q6P1N9: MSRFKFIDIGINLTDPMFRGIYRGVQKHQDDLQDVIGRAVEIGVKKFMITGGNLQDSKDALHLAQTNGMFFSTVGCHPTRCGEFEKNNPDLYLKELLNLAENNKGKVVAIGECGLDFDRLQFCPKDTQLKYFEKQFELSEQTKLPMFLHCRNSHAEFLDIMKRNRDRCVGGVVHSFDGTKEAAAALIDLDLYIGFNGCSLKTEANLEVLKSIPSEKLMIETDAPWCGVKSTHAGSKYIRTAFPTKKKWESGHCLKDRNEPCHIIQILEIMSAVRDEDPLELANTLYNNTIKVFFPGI
UniProt Q9UHD2: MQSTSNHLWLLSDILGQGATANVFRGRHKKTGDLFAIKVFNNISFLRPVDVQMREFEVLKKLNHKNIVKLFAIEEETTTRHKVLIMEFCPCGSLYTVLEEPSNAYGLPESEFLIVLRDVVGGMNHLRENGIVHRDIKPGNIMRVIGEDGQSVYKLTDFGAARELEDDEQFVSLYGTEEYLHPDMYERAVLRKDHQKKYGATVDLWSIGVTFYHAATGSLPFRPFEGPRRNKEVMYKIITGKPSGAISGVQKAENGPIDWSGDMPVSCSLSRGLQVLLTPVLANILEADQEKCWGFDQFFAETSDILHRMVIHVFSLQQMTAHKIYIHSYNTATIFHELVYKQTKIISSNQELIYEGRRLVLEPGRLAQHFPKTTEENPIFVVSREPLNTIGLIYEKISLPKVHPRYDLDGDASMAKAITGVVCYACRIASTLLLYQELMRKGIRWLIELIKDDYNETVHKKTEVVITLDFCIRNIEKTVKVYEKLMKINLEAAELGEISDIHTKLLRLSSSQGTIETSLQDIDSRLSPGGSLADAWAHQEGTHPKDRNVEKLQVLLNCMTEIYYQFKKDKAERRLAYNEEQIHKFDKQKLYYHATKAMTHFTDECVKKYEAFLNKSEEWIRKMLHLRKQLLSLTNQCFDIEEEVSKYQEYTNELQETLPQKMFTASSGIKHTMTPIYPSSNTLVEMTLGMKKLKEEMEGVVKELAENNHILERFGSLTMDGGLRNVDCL
UniProt Q9Y4P3: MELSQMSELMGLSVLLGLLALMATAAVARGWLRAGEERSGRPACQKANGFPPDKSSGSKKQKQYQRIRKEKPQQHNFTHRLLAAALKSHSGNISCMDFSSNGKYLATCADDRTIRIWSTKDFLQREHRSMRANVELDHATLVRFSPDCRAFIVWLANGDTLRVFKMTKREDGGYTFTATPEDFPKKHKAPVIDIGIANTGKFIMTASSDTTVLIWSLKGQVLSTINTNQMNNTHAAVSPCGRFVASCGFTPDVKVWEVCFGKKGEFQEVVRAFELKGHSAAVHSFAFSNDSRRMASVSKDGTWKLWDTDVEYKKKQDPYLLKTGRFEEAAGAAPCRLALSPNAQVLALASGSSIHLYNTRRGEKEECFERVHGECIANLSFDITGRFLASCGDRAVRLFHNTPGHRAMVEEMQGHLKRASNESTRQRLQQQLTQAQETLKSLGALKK
UniProt Q9C0B7: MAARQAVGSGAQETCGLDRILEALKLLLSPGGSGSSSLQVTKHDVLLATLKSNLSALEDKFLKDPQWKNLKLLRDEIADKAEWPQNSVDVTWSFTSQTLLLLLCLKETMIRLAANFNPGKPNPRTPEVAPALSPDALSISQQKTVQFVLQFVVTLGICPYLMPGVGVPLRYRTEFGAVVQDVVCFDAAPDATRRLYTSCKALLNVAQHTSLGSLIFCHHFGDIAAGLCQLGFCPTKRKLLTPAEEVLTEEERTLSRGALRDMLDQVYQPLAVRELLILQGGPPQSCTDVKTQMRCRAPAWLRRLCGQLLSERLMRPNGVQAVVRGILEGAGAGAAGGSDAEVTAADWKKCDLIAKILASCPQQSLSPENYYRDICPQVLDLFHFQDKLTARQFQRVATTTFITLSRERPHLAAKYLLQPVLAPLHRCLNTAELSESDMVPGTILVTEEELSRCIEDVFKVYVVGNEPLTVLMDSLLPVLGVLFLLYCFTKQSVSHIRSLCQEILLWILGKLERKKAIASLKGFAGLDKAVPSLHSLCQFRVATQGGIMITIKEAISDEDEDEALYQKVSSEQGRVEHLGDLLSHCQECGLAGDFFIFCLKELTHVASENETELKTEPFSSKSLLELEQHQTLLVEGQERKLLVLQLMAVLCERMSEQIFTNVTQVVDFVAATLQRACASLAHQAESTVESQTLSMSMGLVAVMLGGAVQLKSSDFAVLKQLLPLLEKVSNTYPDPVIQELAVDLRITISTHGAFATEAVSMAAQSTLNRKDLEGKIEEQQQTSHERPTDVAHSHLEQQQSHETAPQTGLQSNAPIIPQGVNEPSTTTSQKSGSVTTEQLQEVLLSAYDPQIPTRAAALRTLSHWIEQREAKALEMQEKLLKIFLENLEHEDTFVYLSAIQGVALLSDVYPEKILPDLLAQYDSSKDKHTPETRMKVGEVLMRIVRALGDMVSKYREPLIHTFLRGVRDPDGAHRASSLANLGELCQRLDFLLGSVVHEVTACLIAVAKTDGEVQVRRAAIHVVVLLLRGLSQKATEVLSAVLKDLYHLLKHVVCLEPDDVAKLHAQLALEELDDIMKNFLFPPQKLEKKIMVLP
UniProt Q969Z0: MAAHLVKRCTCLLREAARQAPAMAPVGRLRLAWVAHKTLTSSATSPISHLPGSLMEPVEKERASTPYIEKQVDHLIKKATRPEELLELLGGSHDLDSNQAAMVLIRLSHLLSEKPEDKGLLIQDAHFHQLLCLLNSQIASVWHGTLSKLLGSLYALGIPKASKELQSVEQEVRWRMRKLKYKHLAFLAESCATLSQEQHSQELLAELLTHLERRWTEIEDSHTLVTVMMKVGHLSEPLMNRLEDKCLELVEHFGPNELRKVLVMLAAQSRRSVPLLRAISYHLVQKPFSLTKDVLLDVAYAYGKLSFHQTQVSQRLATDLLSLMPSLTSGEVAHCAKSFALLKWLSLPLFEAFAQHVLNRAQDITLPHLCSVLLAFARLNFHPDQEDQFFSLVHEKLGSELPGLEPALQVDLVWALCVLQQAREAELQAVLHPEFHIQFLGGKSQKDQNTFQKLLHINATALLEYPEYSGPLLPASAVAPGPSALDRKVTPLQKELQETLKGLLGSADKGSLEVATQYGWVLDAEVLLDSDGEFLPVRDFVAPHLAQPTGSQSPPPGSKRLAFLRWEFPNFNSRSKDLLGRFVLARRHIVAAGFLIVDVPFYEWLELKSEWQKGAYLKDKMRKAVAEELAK
UniProt Q4KMP7: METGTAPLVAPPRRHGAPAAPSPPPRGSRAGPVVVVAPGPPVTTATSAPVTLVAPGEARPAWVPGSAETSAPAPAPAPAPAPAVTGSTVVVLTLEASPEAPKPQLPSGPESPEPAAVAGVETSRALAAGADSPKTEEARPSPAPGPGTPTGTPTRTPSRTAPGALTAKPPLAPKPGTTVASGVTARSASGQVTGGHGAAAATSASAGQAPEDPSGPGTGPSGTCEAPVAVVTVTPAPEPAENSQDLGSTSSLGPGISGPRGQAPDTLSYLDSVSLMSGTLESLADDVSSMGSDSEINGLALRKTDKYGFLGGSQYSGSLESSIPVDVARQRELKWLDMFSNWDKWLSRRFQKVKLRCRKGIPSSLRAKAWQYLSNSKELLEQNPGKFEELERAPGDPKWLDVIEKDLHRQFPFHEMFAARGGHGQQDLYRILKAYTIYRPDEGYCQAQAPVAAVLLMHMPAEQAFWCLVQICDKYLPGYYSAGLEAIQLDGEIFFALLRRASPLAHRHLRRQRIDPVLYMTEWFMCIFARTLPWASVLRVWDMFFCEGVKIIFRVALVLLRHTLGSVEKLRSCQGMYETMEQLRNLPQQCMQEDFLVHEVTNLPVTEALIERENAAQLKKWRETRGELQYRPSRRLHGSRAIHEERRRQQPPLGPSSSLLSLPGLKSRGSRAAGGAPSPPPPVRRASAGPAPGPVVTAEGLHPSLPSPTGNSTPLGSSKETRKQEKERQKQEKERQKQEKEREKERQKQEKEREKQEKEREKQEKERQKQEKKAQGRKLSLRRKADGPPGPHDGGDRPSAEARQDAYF
UniProt Q7L7X3: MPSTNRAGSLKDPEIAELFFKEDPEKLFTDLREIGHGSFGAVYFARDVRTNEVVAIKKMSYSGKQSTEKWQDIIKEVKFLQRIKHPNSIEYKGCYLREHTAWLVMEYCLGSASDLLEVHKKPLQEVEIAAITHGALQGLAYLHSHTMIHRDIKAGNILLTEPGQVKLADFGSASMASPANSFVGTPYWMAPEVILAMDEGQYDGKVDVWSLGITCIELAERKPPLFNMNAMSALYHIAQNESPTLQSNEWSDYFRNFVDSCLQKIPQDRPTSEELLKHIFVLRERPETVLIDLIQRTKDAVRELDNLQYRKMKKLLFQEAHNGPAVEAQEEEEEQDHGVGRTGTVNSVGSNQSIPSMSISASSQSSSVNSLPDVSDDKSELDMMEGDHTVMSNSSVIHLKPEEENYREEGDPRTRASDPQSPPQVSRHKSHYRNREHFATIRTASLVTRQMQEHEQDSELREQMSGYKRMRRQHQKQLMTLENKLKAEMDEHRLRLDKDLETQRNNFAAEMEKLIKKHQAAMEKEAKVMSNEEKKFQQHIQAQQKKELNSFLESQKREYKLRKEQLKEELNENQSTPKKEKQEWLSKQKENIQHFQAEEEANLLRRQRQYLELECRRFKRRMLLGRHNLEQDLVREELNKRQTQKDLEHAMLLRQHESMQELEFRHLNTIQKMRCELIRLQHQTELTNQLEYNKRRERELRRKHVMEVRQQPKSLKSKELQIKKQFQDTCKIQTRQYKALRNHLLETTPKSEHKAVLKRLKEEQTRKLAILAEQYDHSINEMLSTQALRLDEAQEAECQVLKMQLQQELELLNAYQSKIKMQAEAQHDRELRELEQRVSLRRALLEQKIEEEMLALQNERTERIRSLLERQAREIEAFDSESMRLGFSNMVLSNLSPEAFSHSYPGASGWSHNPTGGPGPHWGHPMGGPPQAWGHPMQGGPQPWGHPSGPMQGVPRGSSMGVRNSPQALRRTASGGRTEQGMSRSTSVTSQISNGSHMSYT

Experiments:
Experiment in all cases: log2 fold change, soluble protein after heating vs DMSO (PISA); higher = thermal stabilisation; K562 lysate, 10 uM; active = over 0.2 and 3.5 SD of the protein, either way, in both replicates (recomputed)
vemurafenib = compound: CCCS(=O)(=O)Nc1ccc(F)c(C(=O)c2c[nH]c3ncc(-c4ccc(Cl)cc4)cc23)c1F [vemurafenib]
How it was run: (§1)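 Thermal stability, expressed as log-two fold change relative to solvent controls, is given from duplicates. Crude K562 extract in PBS pH 7.4 with 1 mM MgCl2, at 1 mg/mL protein, was treated with 10 μM compound for 30 min and heated in aliquots for 3 min across 48°C-58°C. After pooling, adjustment to 0.5% NP-40 at 4°C and centrifugation at 21,000xg for 90 min, supernatant protein was measured by TMTpro 16plex LC-MS/MS with channel sums equalised.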

[1] = compound: CCCS(=O)(=O)Nc1ccc(F)c(C(=O)c2c[nH]c3ncc(Cl)cc23)c1F
How it was run: as §1

barasertib = compound: CCN(CCCOc1ccc2c(Nc3cc(CC(=O)Nc4cccc(F)c4)[nH]n3)ncnc2c1)CCOP(=O)(O)O [barasertib]
How it was run: as §1

[2] = compound: CC[C@@H]1C(=O)N(C)c2cnc(Nc3ccc(C(=O)NC4CCN(C)CC4)cc3OC)nc2N1C1CCCC1
How it was run: as §1

volasertib = compound: CC[C@@H]1C(=O)N(C)c2cnc(Nc3ccc(C(=O)N[C@H]4CC[C@H](N5CCN(CC6CC6)CC5)CC4)cc3OC)nc2N1C(C)C [volasertib]
How it was run: as §1

[3] = compound: CCn1c(C(=O)N(C2CC2)C2CC2)cc2c3c(ncn3C)c(Nc3cc(C)n(C)n3)nc21
How it was run: as §1

[4] = compound: CCn1cc(-c2ccnc3[nH]c(-c4cccc(CN(C)C)c4)cc23)c(-c2ccc(NC(=O)N(C)C)cc2)n1
How it was run: as §1

[5] = compound: CN1CCC(CNc2ccc3ncc(-c4cccc(OC(F)(F)F)c4)n3n2)CC1
How it was run: as §1

saracatinib = compound: CN1CCN(CCOc2cc(OC3CCOCC3)c3c(Nc4c(Cl)ccc5c4OCO5)ncnc3c2)CC1 [saracatinib]
How it was run: as §1

sotrastaurin = compound: CN1CCN(c2nc(C3=C(c4c[nH]c5ccccc45)C(=O)NC3=O)c3ccccc3n2)CC1 [sotrastaurin]
How it was run: as §1

Measured: log2 fold change

TDP2 isoform 2 (UniProt O95551)
inactive: vemurafenib 0.014 | [1] 0.022 | barasertib -0.035 | [2] -0.046 | volasertib -0.004 | [3] 0.013 | [4] -0.015 | [5] 0.016 | saracatinib 0.025 | sotrastaurin -0.005

TBC1D14 (UniProt Q9P2M4)
inactive: vemurafenib 0.011 | [1] 0.014 | barasertib -0.222 | [2] -0.115 | volasertib -0.022 | [3] 0.063 | [4] -0.026 | [5] -0.058 | saracatinib 0.031 | sotrastaurin 0.01

TFB2M (UniProt Q9H5Q4)
inactive: vemurafenib -0.021 | [1] 0.007 | barasertib 0.013 | [2] -0.166 | volasertib -0.024 | [3] 0.024 | [4] 0.017 | [5] -0.123 | saracatinib -0.005 | sotrastaurin -0.004

TEX264 (UniProt Q9Y6I9)
inactive: vemurafenib -0.053 | [1] -0.039 | barasertib -0.005 | [2] -0.03 | volasertib 0.069 | [3] -0.001 | [4] 0.652 | [5] 0.006 | saracatinib 0.024 | sotrastaurin -0.03

TAF8 isoform 2 (UniProt Q7Z7C8)
inactive: vemurafenib -0.053 | [1] 0.02 | barasertib 0.117 | [2] 0.038 | volasertib 0.013 | [3] 0.006 | [4] -0.096 | [5] -0.017 | saracatinib 0.014 | sotrastaurin 0.021

TBC1D4 (UniProt O60343)
inactive: vemurafenib -0.034 | [1] 0.014 | barasertib 0.009 | [2] 0.002 | volasertib -0.019 | [3] 0.042 | [4] -0.089 | [5] 0.054 | saracatinib 0.008 | sotrastaurin 0.027

TBC1D8B (UniProt Q0IIM8)
inactive: vemurafenib -0.007 | [1] -0.025 | barasertib 0.108 | [2] 0.096 | volasertib 0.072 | [3] -0.024 | [5] 0.192 | saracatinib -0.047 | sotrastaurin -0.042
active: [4] -0.308

TARS2 (UniProt Q9BW92)
inactive: vemurafenib -0.009 | [1] -0.001 | barasertib 0.033 | [2] -0.069 | volasertib -0.055 | [3] 0.035 | [4] 0.038 | [5] -0.056 | saracatinib 0.003 | sotrastaurin 0.001

TBC1D22B (UniProt Q9NU19)
inactive: vemurafenib -0.066 | [1] -0.01 | barasertib 0.029 | [2] 0.052 | volasertib -0.025 | [3] -0.069 | [4] -0.027 | [5] -0.04 | saracatinib 0.061 | sotrastaurin 0.007

TATDN1 (UniProt Q6P1N9)
inactive: vemurafenib 0.019 | [1] -0.015 | barasertib -0.019 | [2] 0.025 | volasertib 0.022 | [3] 0.018 | [4] -0.037 | [5] 0.04 | saracatinib -0.015 | sotrastaurin 0.009

TET1 (UniProt Q8NFU7)
inactive: vemurafenib 0.257 | [1] -0.042 | barasertib 0.061 | [2] 0.258 | volasertib 0.094 | [3] -0.467 | [4] -0.701 | [5] 0.404 | saracatinib 0.104 | sotrastaurin -0.015

TBK1 (UniProt Q9UHD2)
inactive: vemurafenib 0.008 | [1] 0.002 | barasertib -0.03 | [2] -0.058 | volasertib -0.064 | [3] -0.021 | [4] 0.216 | [5] 0.079 | saracatinib -0.029 | sotrastaurin -0.045

TDRD3 isoform 3 (UniProt Q9H7E2)
inactive: vemurafenib 0.012 | [1] -0.01 | barasertib -0.043 | [2] 0.041 | volasertib -0.054 | [3] 0.137 | [4] 0.164 | [5] -0.078 | saracatinib -0.094 | sotrastaurin 0.014

TBL2 (UniProt Q9Y4P3)
inactive: vemurafenib -0.016 | [1] -0.013 | barasertib -0.015 | [2] -0.029 | volasertib -0.034 | [3] -0.045 | [4] -0.029 | [5] 0.022 | saracatinib 0.027 | sotrastaurin 0.001

TAF9B (UniProt Q9HBM6)
inactive: vemurafenib 0.01 | [1] 0.093 | barasertib -0.108 | [2] 0.057 | volasertib 0 | [3] 0.088 | [4] -0.004 | [5] 0.034 | saracatinib 0.019 | sotrastaurin 0.017

TBC1D9B isoform 2 (UniProt Q66K14)
inactive: vemurafenib 0.027 | [1] 0.011 | barasertib 0.05 | [2] 0.039 | volasertib 0.002 | [3] -0.089 | [4] -0.082 | [5] 0.057 | saracatinib 0.01 | sotrastaurin -0.009

TANGO6 (UniProt Q9C0B7)
inactive: vemurafenib 0.062 | [1] -0.113 | barasertib 0.036 | [2] 0.023 | volasertib 0.042 | [3] -0.054 | [4] -0.187 | [5] 0.121 | saracatinib -0.011 | sotrastaurin 0.081

Quoted at random: 2 records from the list.
TBL2 (UniProt Q9Y4P3)
inactive: vemurafenib -0.016 | [1] -0.013 | barasertib -0.015 | [2] -0.029 | volasertib -0.034 | [3] -0.045 | [4] -0.029 | [5] 0.022 | saracatinib 0.027 | sotrastaurin 0.001

TAF9B (UniProt Q9HBM6)
inactive: vemurafenib 0.01 | [1] 0.093 | barasertib -0.108 | [2] 0.057 | volasertib 0 | [3] 0.088 | [4] -0.004 | [5] 0.034 | saracatinib 0.019 | sotrastaurin 0.017

Continued.

TBRG4 (UniProt Q969Z0)
inactive: vemurafenib -0.016 | [1] 0.008 | barasertib 0.051 | [2] -0.075 | volasertib -0.079 | [3] 0.048 | [4] 0.052 | [5] -0.128 | saracatinib 0.026 | sotrastaurin 0.013

TAOK3 (UniProt Q9H2K8)
inactive: vemurafenib -0.021 | [1] -0.039 | barasertib 0 | [2] 0.035 | volasertib -0.042 | [3] 0.029 | [4] 0.093 | [5] -0.113 | saracatinib 0.001 | sotrastaurin 0.031

TBC1D10B (UniProt Q4KMP7)
inactive: vemurafenib 0.001 | [1] -0.008 | barasertib -0.033 | [2] 0.066 | volasertib -0.015 | [3] -0.014 | [4] 0.003 | [5] -0.012 | saracatinib -0.011 | sotrastaurin -0.002

TF (UniProt P02787)
inactive: vemurafenib 0.055 | [1] -0.037 | barasertib -0.04 | [2] 0.065 | volasertib 0.041 | [3] 0.004 | [4] -0.128 | [5] 0.095 | saracatinib -0.105 | sotrastaurin 0.114

TBC1D20 isoform 3 (UniProt Q96BZ9)
active: barasertib 0.438
inactive: vemurafenib -0.088 | [1] -0.069 | [2] 0.043 | volasertib 0.008 | [3] 0.059 | [4] 0.046 | [5] -0.033 | saracatinib -0.038 | sotrastaurin -0.096

TGFB1 (UniProt P01137)
inactive: vemurafenib 0.001 | [1] 0.012 | barasertib -0.043 | [2] 0.011 | volasertib 0.027 | [3] 0.02 | [4] -0.123 | [5] 0.039 | saracatinib 0.022 | sotrastaurin 0.031

TCP11L1 (UniProt Q9NUJ3)
inactive: vemurafenib -0.078 | [1] 0.014 | barasertib 0.038 | [2] 0.045 | volasertib -0.054 | [3] 0.009 | [4] -0.244 | [5] 0.097 | saracatinib -0.007 | sotrastaurin 0.009

TARS1 (UniProt P26639)
inactive: vemurafenib -0.006 | [1] 0.015 | barasertib -0.015 | [2] -0.022 | volasertib -0.005 | [3] -0.002 | [4] -0.043 | [5] 0.015 | saracatinib -0.043 | sotrastaurin -0.009

TFDP1 (UniProt Q14186)
inactive: vemurafenib 0.125 | [1] 0.011 | barasertib 0.061 | [2] -0.01 | volasertib -0.007 | [3] 0.055 | [4] 0.004 | [5] -0.043 | saracatinib 0.025 | sotrastaurin -0.017

TAOK1 (UniProt Q7L7X3)
inactive: vemurafenib 0.042 | [1] 0.023 | barasertib -0.01 | [2] 0.086 | volasertib -0.005 | [3] -0.027 | [4] 0.114 | [5] -0.073 | saracatinib 0.001 | sotrastaurin 0.005

TEPSIN, A0A1B0GV70
inactive: vemurafenib -0.108 | [1] 0.045 | barasertib -0.021 | [2] 0.072 | volasertib -0.234 | [3] 0.006 | [4] -0.04 | [5] -0.002 | saracatinib -0.13 | sotrastaurin -0.048

TEX2 isoform 2 (UniProt Q8IWB9)
inactive: vemurafenib -0.058 | [1] -0.063 | barasertib -0.045 | [2] -0.07 | volasertib -0.013 | [3] -0.065 | [4] 0.104 | [5] -0.07 | saracatinib 0.026 | sotrastaurin -0.003

TBC1D22A (UniProt Q8WUA7)
inactive: vemurafenib -0.051 | [1] 0.028 | barasertib 0.045 | [2] -0.016 | volasertib 0.043 | [3] -0.002 | [4] 0.007 | [5] 0.082 | saracatinib -0.006 | sotrastaurin 0.014
